Measurements reported in article PMC10625211.
Positions count from the first letter of the chain named. These are yes or no findings as the source states them, for the method shown. Binding seen in cells or lysates may run through a third protein. A result given as binding can be weak or reduced; the word gives no strength. Sequences can lack the tags named with a protein.

Amino acid sequences for entries named in this document (tags omitted). A change or cut given only in a name is not applied to a line headed by its entry.
UniProt E2QCX5: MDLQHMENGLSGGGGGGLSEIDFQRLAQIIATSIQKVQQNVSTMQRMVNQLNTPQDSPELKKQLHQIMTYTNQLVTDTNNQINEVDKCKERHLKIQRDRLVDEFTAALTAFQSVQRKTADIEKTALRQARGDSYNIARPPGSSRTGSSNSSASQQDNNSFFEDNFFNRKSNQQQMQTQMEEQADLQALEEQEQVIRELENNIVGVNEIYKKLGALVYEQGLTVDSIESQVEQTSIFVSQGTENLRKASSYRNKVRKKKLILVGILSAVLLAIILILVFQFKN

What was measured:
Assay in all cases: co-IP; HEK 293T cells co-transfected with Flag-tagged APOL1 variant (100 ng) and HA-tagged SNARE (900 ng), harvested 16 h after transfection; lysis in 50 mM Tris-HCl pH 7.4, 150 mM NaCl, 2 mM MgCl2, 0.5% Nonidet P-40; immunoprecipitation with anti-Flag M2 affinity gel, immunoblotting with Flag or HA antibody
[1] = target: T1, Flag-tagged APOL1-G0 (human) (UniProt O14791)
T1 sequence: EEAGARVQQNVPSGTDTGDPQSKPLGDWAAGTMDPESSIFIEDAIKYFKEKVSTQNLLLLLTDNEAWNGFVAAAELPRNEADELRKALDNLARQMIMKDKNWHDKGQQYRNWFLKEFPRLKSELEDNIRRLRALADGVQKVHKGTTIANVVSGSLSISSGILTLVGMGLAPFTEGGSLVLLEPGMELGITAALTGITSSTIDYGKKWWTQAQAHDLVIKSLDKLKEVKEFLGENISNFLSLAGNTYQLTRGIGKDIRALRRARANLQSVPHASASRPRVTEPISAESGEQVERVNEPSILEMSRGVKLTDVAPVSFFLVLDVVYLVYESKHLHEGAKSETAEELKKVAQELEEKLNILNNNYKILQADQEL

[2] = target: T2, Flag-tagged APOL1-G1 (human) (UniProt O14791)
T2 sequence: T1 sequence with S315G, I357M

[3] = target: T3, Flag-tagged APOL1-G2 (human) (UniProt O14791)
T3 sequence: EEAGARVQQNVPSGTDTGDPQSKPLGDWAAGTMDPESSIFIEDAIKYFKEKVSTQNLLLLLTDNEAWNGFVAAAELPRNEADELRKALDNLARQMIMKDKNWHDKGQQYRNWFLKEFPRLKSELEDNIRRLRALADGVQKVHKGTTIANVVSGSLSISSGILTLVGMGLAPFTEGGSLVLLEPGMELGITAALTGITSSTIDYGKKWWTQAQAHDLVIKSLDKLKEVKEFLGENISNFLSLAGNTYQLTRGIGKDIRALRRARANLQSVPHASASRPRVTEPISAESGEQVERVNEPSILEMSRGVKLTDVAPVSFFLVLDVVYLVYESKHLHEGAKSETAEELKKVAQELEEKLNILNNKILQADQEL

binding [1]: binds | binding [2]: binds | binding [3]: binds
Substance: HA-tagged dSyx7 (from UniProt E2QCX5)
